# Experimental data published in the supplement of paper PMC11438910.
# This is one part of the list. Most of these values are background signal.
# B1: 4-99.3 (protein)
# chain 1: QVQLQESGPGLVKPSETLSLTCAVSGYSISSGYYWGWIRQPPGKGLEYIGYISGSWGKSYYKPSLKSRVTISKDTSKNQFSLTLSSVTAADTAVYYCARRLEYVGFDVWGPGVLVTVSS
# chain 2: QAAPTQPPSVSGSPGQSVTISCTGTSSDIGYYNAVSWYQQHPGKAPKLMIYEVSKRPSGVSDRFSGSKSGNTASLTISGLQAEDEADYYCSSYAGSNTYIFGSGTRLTVL
# Experiments:
# Test in all cases: fluorescence intensity of antibody binding to polysaccharide-coupled beads; higher = stronger binding
# [1] = target: pneumococcal polysaccharide Pn33B
# [2] = target: pneumococcal polysaccharide Pn33C
# [3] = target: pneumococcal polysaccharide Pn33D
# [4] = target: pneumococcal polysaccharide Pn33F
# [5] = target: pneumococcal polysaccharide Pn34
# [6] = target: pneumococcal polysaccharide Pn35A
# [7] = target: pneumococcal polysaccharide Pn35B
# [8] = target: pneumococcal polysaccharide Pn35C
# [9] = target: pneumococcal polysaccharide Pn35F
# [10] = target: pneumococcal polysaccharide Pn36
# [11] = target: pneumococcal polysaccharide Pn37
# [12] = target: pneumococcal polysaccharide Pn38
# [13] = target: pneumococcal polysaccharide Pn39
# [14] = target: pneumococcal polysaccharide Pn4
# [15] = target: pneumococcal polysaccharide Pn40
# [16] = target: pneumococcal polysaccharide Pn41A
# [17] = target: pneumococcal polysaccharide Pn41F
# [18] = target: pneumococcal polysaccharide Pn42
# [19] = target: pneumococcal polysaccharide Pn43
# [20] = target: pneumococcal polysaccharide Pn44
# [21] = target: pneumococcal polysaccharide Pn45
# [22] = target: pneumococcal polysaccharide Pn46
# [23] = target: pneumococcal polysaccharide Pn47A
# [24] = antibody concentration 2.8593 ng/mL
# [25] = antibody concentration 15.2894 ng/mL
# [26] = antibody concentration 81.7561 ng/mL
# [27] = antibody concentration 437.17 ng/mL
# [28] = antibody concentration 2337.65 ng/mL
# [29] = antibody concentration 12500 ng/mL
# [30] = antibody concentration 0.1 ng/mL
# [31] = antibody concentration 0.534724 ng/mL
binder,measurement,setting,value
B1,fluorescence intensity,[1]; [24],17 MFI
same,fluorescence intensity,[1]; [25],18 MFI
same,fluorescence intensity,[1]; [26],16.8 MFI
same,fluorescence intensity,[1]; [27],18 MFI
same,fluorescence intensity,[1]; [28],19.5 MFI
same,fluorescence intensity,[1]; [29],31 MFI
same,fluorescence intensity,[2]; [30],19.5 MFI
same,fluorescence intensity,[2]; [31],17.2 MFI
same,fluorescence intensity,[2]; [24],18.5 MFI
same,fluorescence intensity,[2]; [25],19.5 MFI
same,fluorescence intensity,[2]; [26],17.5 MFI
same,fluorescence intensity,[2]; [27],19.5 MFI
same,fluorescence intensity,[2]; [28],30 MFI
same,fluorescence intensity,[2]; [29],114 MFI
same,fluorescence intensity,[3]; [30],17.5 MFI
same,fluorescence intensity,[3]; [31],14.5 MFI
same,fluorescence intensity,[3]; [24],14 MFI
same,fluorescence intensity,[3]; [25],15 MFI
same,fluorescence intensity,[3]; [26],15.5 MFI
same,fluorescence intensity,[3]; [27],16.5 MFI
same,fluorescence intensity,[3]; [28],20 MFI
same,fluorescence intensity,[3]; [29],44.2 MFI
same,fluorescence intensity,[4]; [30],12.5 MFI
same,fluorescence intensity,[4]; [31],13.5 MFI
same,fluorescence intensity,[4]; [24],12 MFI
same,fluorescence intensity,[4]; [25],12 MFI
same,fluorescence intensity,[4]; [26],14.5 MFI
same,fluorescence intensity,[4]; [27],16 MFI
same,fluorescence intensity,[4]; [28],41.5 MFI
same,fluorescence intensity,[4]; [29],355 MFI
same,fluorescence intensity,[5]; [30],12.8 MFI
same,fluorescence intensity,[5]; [31],13 MFI
same,fluorescence intensity,[5]; [24],15 MFI
same,fluorescence intensity,[5]; [25],14.5 MFI
same,fluorescence intensity,[5]; [26],13.5 MFI
same,fluorescence intensity,[5]; [27],14 MFI
same,fluorescence intensity,[5]; [28],15 MFI
same,fluorescence intensity,[5]; [29],28.5 MFI
same,fluorescence intensity,[6]; [30],17 MFI
same,fluorescence intensity,[6]; [31],17 MFI
same,fluorescence intensity,[6]; [24],16.5 MFI
same,fluorescence intensity,[6]; [25],16 MFI
same,fluorescence intensity,[6]; [26],15.8 MFI
same,fluorescence intensity,[6]; [27],17 MFI
same,fluorescence intensity,[6]; [28],35.5 MFI
same,fluorescence intensity,[6]; [29],216 MFI
same,fluorescence intensity,[7]; [30],20.8 MFI
same,fluorescence intensity,[7]; [31],18.2 MFI
same,fluorescence intensity,[7]; [24],18.2 MFI
same,fluorescence intensity,[7]; [25],16 MFI
same,fluorescence intensity,[7]; [26],17.5 MFI
same,fluorescence intensity,[7]; [27],17.5 MFI
same,fluorescence intensity,[7]; [28],31.5 MFI
same,fluorescence intensity,[7]; [29],142 MFI
same,fluorescence intensity,[8]; [30],20 MFI
same,fluorescence intensity,[8]; [31],18.5 MFI
same,fluorescence intensity,[8]; [24],19.5 MFI
same,fluorescence intensity,[8]; [25],19.5 MFI
same,fluorescence intensity,[8]; [26],20 MFI
same,fluorescence intensity,[8]; [27],20 MFI
same,fluorescence intensity,[8]; [28],22.5 MFI
same,fluorescence intensity,[8]; [29],34 MFI
same,fluorescence intensity,[9]; [30],18.5 MFI
same,fluorescence intensity,[9]; [31],19.8 MFI
same,fluorescence intensity,[9]; [24],20 MFI
same,fluorescence intensity,[9]; [25],16.5 MFI
same,fluorescence intensity,[9]; [26],18.5 MFI
same,fluorescence intensity,[9]; [27],17.5 MFI
same,fluorescence intensity,[9]; [28],19.8 MFI
same,fluorescence intensity,[9]; [29],32 MFI
same,fluorescence intensity,[10]; [30],14.5 MFI
same,fluorescence intensity,[10]; [31],14.5 MFI
same,fluorescence intensity,[10]; [24],14.2 MFI
same,fluorescence intensity,[10]; [25],14.5 MFI
same,fluorescence intensity,[10]; [26],15 MFI
same,fluorescence intensity,[10]; [27],15.5 MFI
same,fluorescence intensity,[10]; [28],26.5 MFI
same,fluorescence intensity,[10]; [29],182 MFI
same,fluorescence intensity,[11]; [30],24 MFI
same,fluorescence intensity,[11]; [31],24 MFI
same,fluorescence intensity,[11]; [24],25.5 MFI
same,fluorescence intensity,[11]; [25],24.5 MFI
same,fluorescence intensity,[11]; [26],26 MFI
same,fluorescence intensity,[11]; [27],32.5 MFI
same,fluorescence intensity,[11]; [28],75.5 MFI
same,fluorescence intensity,[11]; [29],779 MFI
same,fluorescence intensity,[12]; [30],26 MFI
same,fluorescence intensity,[12]; [31],25 MFI
same,fluorescence intensity,[12]; [24],25 MFI
same,fluorescence intensity,[12]; [25],24.5 MFI
same,fluorescence intensity,[12]; [26],26.5 MFI
same,fluorescence intensity,[12]; [27],26.5 MFI
same,fluorescence intensity,[12]; [28],33 MFI
same,fluorescence intensity,[12]; [29],64.5 MFI
same,fluorescence intensity,[13]; [30],20 MFI
same,fluorescence intensity,[13]; [31],17.5 MFI
same,fluorescence intensity,[13]; [24],17.5 MFI
same,fluorescence intensity,[13]; [25],17.5 MFI
same,fluorescence intensity,[13]; [26],17.5 MFI
same,fluorescence intensity,[13]; [27],20 MFI
same,fluorescence intensity,[13]; [28],30 MFI
same,fluorescence intensity,[13]; [29],140 MFI
same,fluorescence intensity,[14]; [30],18 MFI
same,fluorescence intensity,[14]; [31],17.5 MFI
same,fluorescence intensity,[14]; [24],17.5 MFI
same,fluorescence intensity,[14]; [25],16.5 MFI
same,fluorescence intensity,[14]; [26],19 MFI
same,fluorescence intensity,[14]; [27],23 MFI
same,fluorescence intensity,[14]; [28],30.5 MFI
same,fluorescence intensity,[14]; [29],69.8 MFI
same,fluorescence intensity,[15]; [30],16.5 MFI
same,fluorescence intensity,[15]; [31],15.5 MFI
same,fluorescence intensity,[15]; [24],16 MFI
same,fluorescence intensity,[15]; [25],14.8 MFI
same,fluorescence intensity,[15]; [26],17 MFI
same,fluorescence intensity,[15]; [27],17.5 MFI
same,fluorescence intensity,[15]; [28],30.8 MFI
same,fluorescence intensity,[15]; [29],221 MFI
same,fluorescence intensity,[16]; [30],22 MFI
same,fluorescence intensity,[16]; [31],21.5 MFI
same,fluorescence intensity,[16]; [24],22 MFI
same,fluorescence intensity,[16]; [25],21.5 MFI
same,fluorescence intensity,[16]; [26],23.5 MFI
same,fluorescence intensity,[16]; [27],24 MFI
same,fluorescence intensity,[16]; [28],24.8 MFI
same,fluorescence intensity,[16]; [29],38.2 MFI
same,fluorescence intensity,[17]; [30],13 MFI
same,fluorescence intensity,[17]; [31],11.5 MFI
same,fluorescence intensity,[17]; [24],11.5 MFI
same,fluorescence intensity,[17]; [25],11 MFI
same,fluorescence intensity,[17]; [26],13.5 MFI
same,fluorescence intensity,[17]; [27],13 MFI
same,fluorescence intensity,[17]; [28],16 MFI
same,fluorescence intensity,[17]; [29],37 MFI
same,fluorescence intensity,[18]; [30],11 MFI
same,fluorescence intensity,[18]; [31],11 MFI
same,fluorescence intensity,[18]; [24],10.5 MFI
same,fluorescence intensity,[18]; [25],11 MFI
same,fluorescence intensity,[18]; [26],12.2 MFI
same,fluorescence intensity,[18]; [27],12 MFI
same,fluorescence intensity,[18]; [28],16 MFI
same,fluorescence intensity,[18]; [29],84.5 MFI
same,fluorescence intensity,[19]; [30],15.5 MFI
same,fluorescence intensity,[19]; [31],14.5 MFI
same,fluorescence intensity,[19]; [24],15.5 MFI
same,fluorescence intensity,[19]; [25],14 MFI
same,fluorescence intensity,[19]; [26],15.5 MFI
same,fluorescence intensity,[19]; [27],19.5 MFI
same,fluorescence intensity,[19]; [28],41.5 MFI
same,fluorescence intensity,[19]; [29],470 MFI
same,fluorescence intensity,[20]; [30],24 MFI
same,fluorescence intensity,[20]; [31],23.5 MFI
same,fluorescence intensity,[20]; [24],23.5 MFI
same,fluorescence intensity,[20]; [25],23.5 MFI
same,fluorescence intensity,[20]; [26],23.5 MFI
same,fluorescence intensity,[20]; [27],25.8 MFI
same,fluorescence intensity,[20]; [28],27.5 MFI
same,fluorescence intensity,[20]; [29],50.8 MFI
same,fluorescence intensity,[21]; [30],10.8 MFI
same,fluorescence intensity,[21]; [31],9.5 MFI
same,fluorescence intensity,[21]; [24],11 MFI
same,fluorescence intensity,[21]; [25],10.8 MFI
same,fluorescence intensity,[21]; [26],11.5 MFI
same,fluorescence intensity,[21]; [27],11 MFI
same,fluorescence intensity,[21]; [28],14.5 MFI
same,fluorescence intensity,[21]; [29],29 MFI
same,fluorescence intensity,[22]; [30],23.5 MFI
same,fluorescence intensity,[22]; [31],22.5 MFI
same,fluorescence intensity,[22]; [24],22.5 MFI
same,fluorescence intensity,[22]; [25],22 MFI
same,fluorescence intensity,[22]; [26],23 MFI
same,fluorescence intensity,[22]; [27],25 MFI
same,fluorescence intensity,[22]; [28],33.2 MFI
same,fluorescence intensity,[22]; [29],160 MFI
same,fluorescence intensity,[23]; [30],15 MFI
same,fluorescence intensity,[23]; [31],15.5 MFI
same,fluorescence intensity,[23]; [24],14.5 MFI
same,fluorescence intensity,[23]; [25],15.5 MFI
same,fluorescence intensity,[23]; [26],16 MFI
same,fluorescence intensity,[23]; [27],15 MFI

# Some of the entries so far, with bars between the fields:
binder | measurement | setting | value
B1 | fluorescence intensity | [2]; [31] | 17.2 MFI
same | fluorescence intensity | [5]; [31] | 13 MFI

# In another format: entries from further up
binder	measurement	setting	value
B1	fluorescence intensity	[2]; [24]	18.5 MFI
same	fluorescence intensity	[2]; [25]	19.5 MFI
same	fluorescence intensity	[2]; [26]	17.5 MFI
same	fluorescence intensity	[2]; [27]	19.5 MFI
same	fluorescence intensity	[2]; [28]	30 MFI
same	fluorescence intensity	[2]; [29]	114 MFI
